Laboratory results as given in article PMC4482071.
No constants are given. Whether binding was seen depends on the method and setting. Some entries that bind do so weakly or less than the wild type. Tags and fused reporters may be left off the sequences shown.

Experiments:
[1] = biological target: T1, ScRpf2 full length (Saccharomyces cerevisiae) (UniProt P36160); assay: co-purification of co-expressed proteins; method of ref. 22 with a heparin column instead of Resource S and size-exclusion chromatography in 20 mM HEPES-NaOH pH 7.5, 300 mM NaCl, 10 mM MgCl2, 10% glycerol
T1 sequence: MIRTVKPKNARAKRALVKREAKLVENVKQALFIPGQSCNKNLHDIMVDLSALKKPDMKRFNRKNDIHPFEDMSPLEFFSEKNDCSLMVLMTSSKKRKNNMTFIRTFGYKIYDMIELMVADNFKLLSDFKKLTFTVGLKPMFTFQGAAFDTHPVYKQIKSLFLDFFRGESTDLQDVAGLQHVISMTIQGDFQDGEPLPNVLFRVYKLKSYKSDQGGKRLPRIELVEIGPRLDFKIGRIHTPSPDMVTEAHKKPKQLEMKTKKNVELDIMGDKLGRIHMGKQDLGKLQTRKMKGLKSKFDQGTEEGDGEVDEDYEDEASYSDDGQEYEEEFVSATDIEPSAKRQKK

[2] = biological target: T2, ScRpf2ΔC (ScRpf2 C-terminal deletion mutant; deletion of 90 C-terminal residues, 255–344) (Saccharomyces cerevisiae) (UniProt P36160); assay: as above
T2 sequence: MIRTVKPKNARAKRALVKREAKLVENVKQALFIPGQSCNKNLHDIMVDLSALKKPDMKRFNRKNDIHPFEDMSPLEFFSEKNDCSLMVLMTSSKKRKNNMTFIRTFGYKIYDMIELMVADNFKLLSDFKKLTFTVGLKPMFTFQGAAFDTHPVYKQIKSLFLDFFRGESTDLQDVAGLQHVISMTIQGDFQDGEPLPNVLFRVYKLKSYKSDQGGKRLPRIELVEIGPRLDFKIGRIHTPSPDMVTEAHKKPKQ

[3] = biological target: T2, ScRpf2ΔC (ScRpf2 C-terminal deletion mutant; deletion of 90 C-terminal residues, 255–344) (Saccharomyces cerevisiae); assay: co-purification of co-expressed proteins; His6-ScRpf2 variants co-expressed with ScRrs1ΔC; HisTrap HP column, then HiLoad 16/60 Superdex 200-pg column

B1: ScRrs1 full length (protein, UniProt Q08746 1-203)
chain: MSAEDYKNLPVTVEKPIPVVYDLGNLAAFDSNVLDKNDLDSSNARREEKIKSLTRDNVQLLINQLLSLPMKTTTESVGGTGGQSSVMTLLQLPDPTTDLPREKPLPKAKAMTKWEKFAAKKGIKPKERAGKMIYDEASGEWVPKWGYKGANKKLDDQWLVEVDDKVKGTDNELIDPRTLNRAERKRLVKKNEKQQRRNMKNAL
- binding [1]: binds
- binding [2]: binds

B2: ScRrs1ΔC (ScRrs1 C-terminal deletion mutant; deletion of 94 C-terminal residues, 110–293 as printed) (domain or fragment, UniProt Q08746 1-109)
chain: MSAEDYKNLPVTVEKPIPVVYDLGNLAAFDSNVLDKNDLDSSNARREEKIKSLTRDNVQLLINQLLSLPMKTTTESVGGTGGQSSVMTLLQLPDPTTDLPREKPLPKAK
- binding [1]: binds
- binding [2]: binds
- binding [3]: binds
